These are yes or no findings as the source states them, for the method shown. In cells and extracts the contact can be indirect. Here binding means that the protein was enriched with, or labelled near, the bait; the list need not be complete. Tags and fused reporters may be left off the sequences shown.
Columns and labels:
[1] = molecular target: T1, PfMYST::PTP (endogenous PfMYST with a C-terminal PTP tag) (P. falciparum (endogenous in 3D7 parasites)) (UniProt Q8III2); assay: affinity purification with mass spectrometry; tandem affinity purification (IgG agarose beads, TEV protease, anti-protein C beads) of PfMYST::PTP from nuclear extracts of 10^9 asexual blood-stage parasites in PA150 buffer (150 mM KCl, 20 mM Tris-HCl pH 7.7, 3 mM MgCl2, 0.5 mM DTT, 0.1% Tween 20), 4°C; WT 3D7 as control; LC-MS/MS, SAINT probability above 95%, FDR below 1%; three replicates
T1 sequence: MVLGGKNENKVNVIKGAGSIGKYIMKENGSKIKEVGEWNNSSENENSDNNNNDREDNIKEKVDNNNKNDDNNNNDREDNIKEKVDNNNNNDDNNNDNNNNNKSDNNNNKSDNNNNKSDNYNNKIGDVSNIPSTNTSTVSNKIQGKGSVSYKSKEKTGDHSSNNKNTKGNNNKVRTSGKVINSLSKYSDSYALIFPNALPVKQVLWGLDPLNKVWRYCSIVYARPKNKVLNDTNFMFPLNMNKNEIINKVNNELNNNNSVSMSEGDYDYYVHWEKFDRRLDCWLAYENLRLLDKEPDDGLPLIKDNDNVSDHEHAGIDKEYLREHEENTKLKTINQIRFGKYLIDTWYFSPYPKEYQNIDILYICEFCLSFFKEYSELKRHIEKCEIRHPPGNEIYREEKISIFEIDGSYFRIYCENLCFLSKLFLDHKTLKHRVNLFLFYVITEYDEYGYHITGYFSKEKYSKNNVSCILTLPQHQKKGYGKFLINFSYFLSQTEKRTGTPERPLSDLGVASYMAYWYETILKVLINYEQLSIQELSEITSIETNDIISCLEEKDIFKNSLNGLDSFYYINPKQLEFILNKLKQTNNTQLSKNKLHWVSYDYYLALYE

Sequences of proteins named here, by UniProt entry; tags and fusion partners are left off.
UniProt Q8IJW2: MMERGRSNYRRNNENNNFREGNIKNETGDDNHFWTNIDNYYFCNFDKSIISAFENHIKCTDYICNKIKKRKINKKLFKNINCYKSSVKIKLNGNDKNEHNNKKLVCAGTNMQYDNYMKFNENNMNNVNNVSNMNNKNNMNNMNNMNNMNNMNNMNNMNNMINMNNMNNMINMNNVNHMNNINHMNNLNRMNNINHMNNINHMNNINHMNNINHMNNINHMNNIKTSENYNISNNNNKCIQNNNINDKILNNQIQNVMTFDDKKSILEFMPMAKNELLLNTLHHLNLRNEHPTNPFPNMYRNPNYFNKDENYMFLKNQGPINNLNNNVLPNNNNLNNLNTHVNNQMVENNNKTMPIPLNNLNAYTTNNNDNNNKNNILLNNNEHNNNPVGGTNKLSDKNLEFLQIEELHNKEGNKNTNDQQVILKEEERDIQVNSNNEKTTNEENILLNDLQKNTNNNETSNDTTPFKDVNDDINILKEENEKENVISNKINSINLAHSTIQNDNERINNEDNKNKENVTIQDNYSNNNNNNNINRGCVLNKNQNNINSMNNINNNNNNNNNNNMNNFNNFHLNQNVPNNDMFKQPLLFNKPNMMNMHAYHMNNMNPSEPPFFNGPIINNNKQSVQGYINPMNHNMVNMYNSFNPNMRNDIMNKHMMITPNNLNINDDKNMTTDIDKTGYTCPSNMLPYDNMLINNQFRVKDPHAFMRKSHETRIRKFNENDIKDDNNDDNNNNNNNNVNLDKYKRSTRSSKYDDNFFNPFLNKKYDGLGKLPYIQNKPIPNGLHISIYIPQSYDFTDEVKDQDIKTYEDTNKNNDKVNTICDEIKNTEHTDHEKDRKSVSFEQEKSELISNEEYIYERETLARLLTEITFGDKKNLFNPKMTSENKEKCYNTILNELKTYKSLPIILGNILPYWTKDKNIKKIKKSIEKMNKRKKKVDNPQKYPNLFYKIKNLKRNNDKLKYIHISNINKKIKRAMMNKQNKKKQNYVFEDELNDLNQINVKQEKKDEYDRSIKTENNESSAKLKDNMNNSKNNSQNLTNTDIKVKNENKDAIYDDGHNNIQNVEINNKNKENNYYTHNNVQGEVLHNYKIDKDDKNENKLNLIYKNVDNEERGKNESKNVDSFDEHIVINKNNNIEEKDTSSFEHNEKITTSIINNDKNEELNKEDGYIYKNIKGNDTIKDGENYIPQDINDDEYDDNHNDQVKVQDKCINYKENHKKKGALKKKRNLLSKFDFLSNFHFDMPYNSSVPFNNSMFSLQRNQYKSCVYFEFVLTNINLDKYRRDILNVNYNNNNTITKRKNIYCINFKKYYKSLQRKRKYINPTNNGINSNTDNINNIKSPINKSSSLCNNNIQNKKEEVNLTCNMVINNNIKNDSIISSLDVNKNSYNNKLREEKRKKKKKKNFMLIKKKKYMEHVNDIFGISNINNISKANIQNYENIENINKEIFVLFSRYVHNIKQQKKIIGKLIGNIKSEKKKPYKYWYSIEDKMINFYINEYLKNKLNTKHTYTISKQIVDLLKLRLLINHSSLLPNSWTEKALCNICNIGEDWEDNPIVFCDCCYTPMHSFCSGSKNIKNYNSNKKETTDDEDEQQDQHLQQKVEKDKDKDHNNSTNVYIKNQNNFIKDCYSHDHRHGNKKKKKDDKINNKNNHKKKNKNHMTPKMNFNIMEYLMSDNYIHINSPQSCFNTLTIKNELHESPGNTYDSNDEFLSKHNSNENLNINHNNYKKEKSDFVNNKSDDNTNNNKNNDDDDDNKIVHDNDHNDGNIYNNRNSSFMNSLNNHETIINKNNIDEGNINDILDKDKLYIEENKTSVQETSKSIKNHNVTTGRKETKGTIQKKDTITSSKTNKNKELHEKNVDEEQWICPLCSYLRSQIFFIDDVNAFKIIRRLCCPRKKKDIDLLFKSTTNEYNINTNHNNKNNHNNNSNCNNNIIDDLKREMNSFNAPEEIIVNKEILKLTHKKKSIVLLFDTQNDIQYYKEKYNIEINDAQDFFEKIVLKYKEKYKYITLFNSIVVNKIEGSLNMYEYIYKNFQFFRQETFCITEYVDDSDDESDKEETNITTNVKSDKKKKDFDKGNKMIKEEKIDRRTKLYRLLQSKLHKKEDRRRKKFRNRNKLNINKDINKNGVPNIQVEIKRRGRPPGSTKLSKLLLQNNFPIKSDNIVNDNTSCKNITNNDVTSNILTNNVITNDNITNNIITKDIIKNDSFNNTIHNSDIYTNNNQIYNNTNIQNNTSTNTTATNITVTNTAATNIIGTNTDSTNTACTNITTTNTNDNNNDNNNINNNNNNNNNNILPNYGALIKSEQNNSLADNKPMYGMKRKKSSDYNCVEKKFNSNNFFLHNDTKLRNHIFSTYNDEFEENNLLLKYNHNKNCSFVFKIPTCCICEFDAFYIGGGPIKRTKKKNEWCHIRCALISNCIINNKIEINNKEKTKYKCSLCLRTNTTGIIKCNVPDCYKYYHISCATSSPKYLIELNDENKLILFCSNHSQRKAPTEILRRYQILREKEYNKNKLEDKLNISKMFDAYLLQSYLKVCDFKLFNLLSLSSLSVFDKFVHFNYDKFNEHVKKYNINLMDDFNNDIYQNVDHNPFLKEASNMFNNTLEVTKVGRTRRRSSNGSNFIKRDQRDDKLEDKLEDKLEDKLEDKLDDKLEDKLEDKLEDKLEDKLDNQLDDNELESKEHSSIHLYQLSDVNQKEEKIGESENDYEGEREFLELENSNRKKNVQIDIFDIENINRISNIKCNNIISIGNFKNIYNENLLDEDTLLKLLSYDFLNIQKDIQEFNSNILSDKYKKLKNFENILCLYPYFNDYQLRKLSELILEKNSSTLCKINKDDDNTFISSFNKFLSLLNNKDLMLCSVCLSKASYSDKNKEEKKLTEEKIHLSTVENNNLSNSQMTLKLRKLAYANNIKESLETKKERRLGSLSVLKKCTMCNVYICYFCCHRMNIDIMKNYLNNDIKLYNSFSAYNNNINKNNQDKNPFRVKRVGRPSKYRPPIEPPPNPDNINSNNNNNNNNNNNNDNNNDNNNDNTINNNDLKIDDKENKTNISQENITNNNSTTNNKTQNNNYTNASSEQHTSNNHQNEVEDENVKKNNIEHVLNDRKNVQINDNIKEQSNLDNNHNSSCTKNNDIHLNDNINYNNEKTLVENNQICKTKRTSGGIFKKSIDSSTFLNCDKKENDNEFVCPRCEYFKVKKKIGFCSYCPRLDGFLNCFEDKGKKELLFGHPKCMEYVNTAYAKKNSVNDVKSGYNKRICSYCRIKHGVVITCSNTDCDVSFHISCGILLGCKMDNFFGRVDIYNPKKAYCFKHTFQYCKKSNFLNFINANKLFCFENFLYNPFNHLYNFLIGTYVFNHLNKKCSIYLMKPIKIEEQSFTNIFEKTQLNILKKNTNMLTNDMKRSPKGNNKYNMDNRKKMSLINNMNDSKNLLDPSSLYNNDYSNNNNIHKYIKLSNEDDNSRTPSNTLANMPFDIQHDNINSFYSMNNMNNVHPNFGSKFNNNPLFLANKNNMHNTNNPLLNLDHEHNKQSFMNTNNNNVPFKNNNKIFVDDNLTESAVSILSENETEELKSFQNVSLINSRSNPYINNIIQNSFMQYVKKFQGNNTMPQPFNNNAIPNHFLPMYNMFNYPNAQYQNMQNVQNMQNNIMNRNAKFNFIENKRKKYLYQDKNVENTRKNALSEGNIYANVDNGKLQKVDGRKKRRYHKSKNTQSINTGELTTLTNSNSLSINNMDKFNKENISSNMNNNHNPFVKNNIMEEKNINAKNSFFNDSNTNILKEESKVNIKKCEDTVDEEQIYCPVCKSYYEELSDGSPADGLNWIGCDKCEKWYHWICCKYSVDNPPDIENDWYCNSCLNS
UniProt Q8IKF6: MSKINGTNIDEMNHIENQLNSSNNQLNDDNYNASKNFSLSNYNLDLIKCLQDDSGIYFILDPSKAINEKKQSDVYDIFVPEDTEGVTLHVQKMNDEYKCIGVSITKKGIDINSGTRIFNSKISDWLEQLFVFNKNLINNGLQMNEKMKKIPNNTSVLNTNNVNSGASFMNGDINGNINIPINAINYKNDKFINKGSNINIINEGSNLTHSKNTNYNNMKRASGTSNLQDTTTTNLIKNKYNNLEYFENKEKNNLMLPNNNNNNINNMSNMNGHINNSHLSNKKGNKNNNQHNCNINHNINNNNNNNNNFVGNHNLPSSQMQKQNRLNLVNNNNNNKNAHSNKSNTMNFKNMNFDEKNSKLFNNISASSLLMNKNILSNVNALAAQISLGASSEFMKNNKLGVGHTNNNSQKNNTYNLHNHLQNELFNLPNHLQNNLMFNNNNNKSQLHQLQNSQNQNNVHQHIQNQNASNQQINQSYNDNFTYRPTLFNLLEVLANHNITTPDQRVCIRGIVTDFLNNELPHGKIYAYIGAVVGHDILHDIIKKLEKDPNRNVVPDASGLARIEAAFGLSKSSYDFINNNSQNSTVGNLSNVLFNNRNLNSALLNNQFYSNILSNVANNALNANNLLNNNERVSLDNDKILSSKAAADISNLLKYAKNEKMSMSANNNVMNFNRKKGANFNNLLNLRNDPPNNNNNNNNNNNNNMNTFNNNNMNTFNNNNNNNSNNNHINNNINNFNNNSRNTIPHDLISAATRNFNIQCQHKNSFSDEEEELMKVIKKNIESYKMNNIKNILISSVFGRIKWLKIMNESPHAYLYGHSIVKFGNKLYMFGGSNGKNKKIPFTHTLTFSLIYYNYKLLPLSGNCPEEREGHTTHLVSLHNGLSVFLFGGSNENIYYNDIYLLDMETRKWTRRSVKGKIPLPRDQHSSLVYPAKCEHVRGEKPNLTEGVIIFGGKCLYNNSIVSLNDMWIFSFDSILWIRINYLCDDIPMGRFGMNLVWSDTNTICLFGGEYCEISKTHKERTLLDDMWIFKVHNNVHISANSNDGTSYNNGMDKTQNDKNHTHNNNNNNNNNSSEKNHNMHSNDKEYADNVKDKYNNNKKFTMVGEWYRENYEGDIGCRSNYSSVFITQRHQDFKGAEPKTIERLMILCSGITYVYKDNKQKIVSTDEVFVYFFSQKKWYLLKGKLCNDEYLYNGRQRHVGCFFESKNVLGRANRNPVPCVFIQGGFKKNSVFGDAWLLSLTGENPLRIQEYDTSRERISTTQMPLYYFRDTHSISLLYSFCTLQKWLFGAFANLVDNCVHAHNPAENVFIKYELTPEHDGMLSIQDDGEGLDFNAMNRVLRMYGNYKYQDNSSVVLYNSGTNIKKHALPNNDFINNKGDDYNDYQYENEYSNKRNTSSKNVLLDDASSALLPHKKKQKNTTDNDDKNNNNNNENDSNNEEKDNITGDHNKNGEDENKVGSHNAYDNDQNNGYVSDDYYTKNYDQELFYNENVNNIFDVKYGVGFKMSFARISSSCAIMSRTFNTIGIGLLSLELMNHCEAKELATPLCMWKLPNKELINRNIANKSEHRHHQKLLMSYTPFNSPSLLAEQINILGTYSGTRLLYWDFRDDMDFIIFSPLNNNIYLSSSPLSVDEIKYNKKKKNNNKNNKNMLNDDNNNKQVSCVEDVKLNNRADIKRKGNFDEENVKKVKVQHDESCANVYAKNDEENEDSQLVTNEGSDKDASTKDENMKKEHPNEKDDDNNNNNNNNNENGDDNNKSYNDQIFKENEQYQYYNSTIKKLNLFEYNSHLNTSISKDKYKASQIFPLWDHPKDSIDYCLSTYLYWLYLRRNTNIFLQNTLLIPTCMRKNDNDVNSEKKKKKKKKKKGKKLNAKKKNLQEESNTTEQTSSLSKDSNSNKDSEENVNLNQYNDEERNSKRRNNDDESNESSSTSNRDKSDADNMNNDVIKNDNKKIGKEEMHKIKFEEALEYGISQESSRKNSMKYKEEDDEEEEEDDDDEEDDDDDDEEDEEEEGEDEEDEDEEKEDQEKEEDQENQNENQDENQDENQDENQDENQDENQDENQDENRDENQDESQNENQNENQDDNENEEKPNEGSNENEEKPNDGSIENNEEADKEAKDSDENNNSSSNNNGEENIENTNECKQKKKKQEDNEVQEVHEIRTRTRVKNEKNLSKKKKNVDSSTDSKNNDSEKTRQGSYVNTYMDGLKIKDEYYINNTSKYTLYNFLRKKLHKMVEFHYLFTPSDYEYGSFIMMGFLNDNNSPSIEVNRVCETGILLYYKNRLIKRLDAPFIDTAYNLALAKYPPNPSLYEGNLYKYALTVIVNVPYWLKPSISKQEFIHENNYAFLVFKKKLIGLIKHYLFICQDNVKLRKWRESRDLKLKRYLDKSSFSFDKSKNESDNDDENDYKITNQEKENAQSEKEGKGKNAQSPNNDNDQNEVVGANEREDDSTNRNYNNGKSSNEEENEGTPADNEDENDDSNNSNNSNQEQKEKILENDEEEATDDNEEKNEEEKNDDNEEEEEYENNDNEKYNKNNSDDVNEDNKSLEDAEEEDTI

[2] = molecular target: T2, PfEAF2::GFP (endogenous PfEAF2 tagged with GFP) (P. falciparum (endogenous in 3D7 parasites)) (UniProt C6KTC1); assay: affinity purification with mass spectrometry; single-step pulldown of PfEAF2::GFP with GFP-trap beads from lysates of 10^9 parasites; LC-MS/MS, same SAINT thresholds; three replicates
T2 sequence: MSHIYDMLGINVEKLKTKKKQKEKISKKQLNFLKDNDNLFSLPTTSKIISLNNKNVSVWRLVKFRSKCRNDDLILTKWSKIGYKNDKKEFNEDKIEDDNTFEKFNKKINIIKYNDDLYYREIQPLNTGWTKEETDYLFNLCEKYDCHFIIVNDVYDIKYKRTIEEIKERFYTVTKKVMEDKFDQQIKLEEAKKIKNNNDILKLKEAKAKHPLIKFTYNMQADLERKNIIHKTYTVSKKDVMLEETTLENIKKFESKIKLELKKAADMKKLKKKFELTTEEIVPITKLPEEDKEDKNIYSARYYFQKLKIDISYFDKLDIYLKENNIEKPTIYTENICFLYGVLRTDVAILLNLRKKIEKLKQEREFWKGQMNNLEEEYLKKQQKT

| Substance | binding [1] | binding [2] |
| --- | --- | --- |
| ISWI (PF3D7_0624600) (from UniProt C6KT82 1-2719) | – | binds |
| PfADA2 (from UniProt Q8IJP9) | binds | – |
| PfEAF1 (from UniProt Q8ILR9) | binds | binds |
| PfPHD1 (from UniProt Q8IJW2 1-3853) | binds | – |
| PfSWR1 (from UniProt C0H4W3) | – | binds |
| PfYAF9 (from UniProt C0H4S5) | binds | binds |
| RhopH2 (from UniProt C0H571) | binds | – |
| actin-like protein ALP2b | – | binds |
| high mobility group protein B3 (HMGB3) | – | binds |
| protein with unknown functions (PF3D7_0212100) containing a transcriptional activator LAG-3 family sequence (from UniProt O96201 1-1844) | – | binds |

Second part, the substance after the results:

| binding [1] | binding [2] | Substance |
| --- | --- | --- |
| binds | – | E3 ubiquitin ligase (PF3D7_0826100) (from UniProt Q8IB94 1-8591) |
| binds | – | MORC family protein (PF3D7_1468100) (from UniProt Q8IKF6 1-2558) |
| binds | binds | PfCHD1, putative homolog of chromodomain-helicase-DNA-binding protein 1 (from UniProt Q8IJG6 1-3328) |
| binds | binds | PfTRA1 (from UniProt Q8IES7 1-9271) |
| binds | – | calmodulin (PF3D7_1434200) (from UniProt P62203 1-149) |
